This is one part of the list.
Experiments:
Test in all cases: glycan array binding signal (z-score within array); higher = stronger binding
Conditions in all cases: glycan notation: IUPAC condensed, linker removed
[1] = target: GalNAc(a1-3)GalNAc(b1-3)Gal(a1-4)Gal(b1-4)Glc
Method in brief: (§1)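 The binding signal is a Z-score computed within each array and averaged over linkers. Arrays of the same protein sequence at different concentrations or buffers were also averaged together. Data originate from 3228 arrays in the Consortium for Functional Glycomics database, kept only where the protein sequence was available.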

[2] = target: GalNAc(a1-3)GalNAc(b1-3)Gal(a1-4)Gal(b1-4)GlcNAc
Method in brief: as §1

GalNAc(b1-3)Gal = target: GalNAc(b1-3)Gal
Method in brief: as §1

[3] = target: GalNAc(b1-3)Gal(a1-4)Gal(b1-4)GlcNAc
Method in brief: as §1

[4] = target: GalNAc(b1-3)Gal(a1-4)Gal(b1-4)GlcNAc(b1-3)Gal(b1-4)Glc
Method in brief: as §1

[5] = target: GalNAc(b1-3)Gal(a1-6)Gal(b1-4)Glc
Method in brief: as §1

GalNAc(b1-3)GalNAc = target: GalNAc(b1-3)GalNAc
Method in brief: as §1

GalNAc(b1-3)GlcNAc = target: GalNAc(b1-3)GlcNAc
Method in brief: as §1

GalNAc(b1-4)Gal(b1-4)Glc = target: GalNAc(b1-4)Gal(b1-4)Glc
Method in brief: as §1

GalNAc(b1-4)GlcNAc = target: GalNAc(b1-4)GlcNAc
Method in brief: as §1

[6] = target: GalNAc(b1-4)GlcNAc(b1-2)Man
Method in brief: as §1

[7] = target: GalNAc(b1-4)GlcNAc(b1-2)Man(a1-3)[GalNAc(b1-4)GlcNAc(b1-2)Man(a1-6)]Man(b1-4)GlcNAc(b1-4)GlcNAc
Method in brief: as §1

[8] = target: GalNAc(b1-4)GlcNAc(b1-3)GalNAc(b1-4)GlcNAc
Method in brief: as §1

GalNAc(b1-4)GlcNAc6S = target: GalNAc(b1-4)GlcNAc6S
Method in brief: as §1

GalNAc(b1-6)GalNAc = target: GalNAc(b1-6)GalNAc
Method in brief: as §1

GalNAc3S(b1-4)GlcNAc = target: GalNAc3S(b1-4)GlcNAc
Method in brief: as §1

GalNAc3S(b1-4)GlcNAc3S = target: GalNAc3S(b1-4)GlcNAc3S
Method in brief: as §1

[9] = target: GalNAc3S(b1-4)[Fuc(a1-3)]GlcNAc
Method in brief: as §1

GalNAc4S6S(b1-4)GlcNAc = target: GalNAc4S6S(b1-4)GlcNAc
Method in brief: as §1

GalNAc6S(b1-4)GlcNAc = target: GalNAc6S(b1-4)GlcNAc
Method in brief: as §1

Glc(a1-4)Glc = target: Glc(a1-4)Glc
Method in brief: as §1

[10] = target: Glc(a1-4)Glc(a1-4)Glc(a1-4)Glc
Method in brief: as §1

Glc(a1-6)Glc(a1-6)Glc = target: Glc(a1-6)Glc(a1-6)Glc
Method in brief: as §1

[11] = target: Glc(a1-6)Glc(a1-6)Glc(a1-6)Glc
Method in brief: as §1

Glc(b1-4)Glc = target: Glc(b1-4)Glc
Method in brief: as §1

Glc(b1-6)Glc = target: Glc(b1-6)Glc
Method in brief: as §1

GlcA(b1-3)Gal = target: GlcA(b1-3)Gal
Method in brief: as §1

GlcA(b1-3)GlcNAc = target: GlcA(b1-3)GlcNAc
Method in brief: as §1

GlcA(b1-6)Gal = target: GlcA(b1-6)Gal
Method in brief: as §1

[12] = target: GlcA3S(b1-3)Gal(b1-4)GlcNAc(b1-2)Man
Method in brief: as §1

[13] = target: GlcA3S(b1-3)Gal(b1-4)GlcNAc(b1-3)Gal(b1-4)Glc
Method in brief: as §1

[14] = target: GlcNAc(a1-3)Gal(b1-4)GlcNAc
Method in brief: as §1

[15] = target: GlcNAc(a1-4)Gal(b1-3)GlcNAc
Method in brief: as §1

[16] = target: GlcNAc(a1-4)Gal(b1-4)GalNAc
Method in brief: as §1

[17] = target: GlcNAc(a1-4)Gal(b1-4)GlcNAc
Method in brief: as §1

[18] = target: GlcNAc(a1-4)Gal(b1-4)GlcNAc(b1-3)Gal(b1-4)Glc
Method in brief: as §1

[19] = target: GlcNAc(a1-4)Gal(b1-4)GlcNAc(b1-3)Gal(b1-4)GlcNAc
Method in brief: as §1

[20] = target: GlcNAc(a1-4)Gal(b1-4)GlcNAc(b1-3)Gal(b1-4)GlcNAc(b1-3)Gal(b1-4)GlcNAc
Method in brief: as §1

B1: Flo1 (Saccharomyces cerevisiae), P32768 (protein)
chain: SGATEACLPAGQRKSGMNINFYQYSLKDSSTYSNAAYMAYGYASKTKLGSVGGQTDISIDYNIPCVSSSGTFPCPQEDSYGNWGCKGMGACSNSQGIAYWSTDLFGFYTTPTNVTLEMTGYFLPPQTGSYTFKFATVDDSAILSVGGATAFNCCAQQQPPITSTNFTIDGIKPWGGSLPPNIEGTVYMYAGYYYPMKVVYSNAVSWGTLPISVTLPDGTTVSDDFEGYVYSFDDDLSQSNCTVPDPSNY
[1]
  glycan array binding signal (z-score): 0.141
[2]
  glycan array binding signal (z-score): -0.599
GalNAc(b1-3)Gal
  glycan array binding signal (z-score): -0.42
[3]
  glycan array binding signal (z-score): -0.281
[4]
  glycan array binding signal (z-score): -0.286
[5]
  glycan array binding signal (z-score): -0.629
GalNAc(b1-3)GalNAc
  glycan array binding signal (z-score): -0.28
GalNAc(b1-3)GlcNAc
  glycan array binding signal (z-score): -0.179
GalNAc(b1-4)Gal(b1-4)Glc
  glycan array binding signal (z-score): 3.53
GalNAc(b1-4)GlcNAc
  glycan array binding signal (z-score): -0.424
[6]
  glycan array binding signal (z-score): 0.122
[7]
  glycan array binding signal (z-score): 0.773
[8]
  glycan array binding signal (z-score): -0.719
GalNAc(b1-4)GlcNAc6S
  glycan array binding signal (z-score): -0.808
GalNAc(b1-6)GalNAc
  glycan array binding signal (z-score): -0.41
GalNAc3S(b1-4)GlcNAc
  glycan array binding signal (z-score): -0.358
GalNAc3S(b1-4)GlcNAc3S
  glycan array binding signal (z-score): -0.046
[9]
  glycan array binding signal (z-score): 0.347
GalNAc4S6S(b1-4)GlcNAc
  glycan array binding signal (z-score): 3.28
GalNAc6S(b1-4)GlcNAc
  glycan array binding signal (z-score): -0.47
Glc(a1-4)Glc
  glycan array binding signal (z-score): -0.567
[10]
  glycan array binding signal (z-score): 0.609
Glc(a1-6)Glc(a1-6)Glc
  glycan array binding signal (z-score): -0.407
[11]
  glycan array binding signal (z-score): -0.3
Glc(b1-4)Glc
  glycan array binding signal (z-score): -0.812
Glc(b1-6)Glc
  glycan array binding signal (z-score): -0.354
GlcA(b1-3)Gal
  glycan array binding signal (z-score): -0.302
GlcA(b1-3)GlcNAc
  glycan array binding signal (z-score): 2.06
GlcA(b1-6)Gal
  glycan array binding signal (z-score): -0.12
[12]
  glycan array binding signal (z-score): 0.219
[13]
  glycan array binding signal (z-score): 0.39
[14]
  glycan array binding signal (z-score): -0.432
[15]
  glycan array binding signal (z-score): 0.266
[16]
  glycan array binding signal (z-score): 0.83
[17]
  glycan array binding signal (z-score): -0.308
[18]
  glycan array binding signal (z-score): -0.109
[19]
  glycan array binding signal (z-score): -0.268
[20]
  glycan array binding signal (z-score): 0.101
